Measurements reported in PubChem BioAssay AID652243 (Drosophila RNAi Screening Center, 2013)

Assay: 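Knock-downs that decrease or increase androgen receptor reporter signal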 (primary screen)
Cell system: Drosophila S2R+ cells
Knock-down reagent: long dsRNA against Drosophila genes
Timing: 72 h (48 h, then 24 h hormone)
Challenge: synthetic androgen R1881 at 10 nM for 24 h
Read-out: 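Per-well raw luminescence of the androgen-driven firefly reporter and of the Renilla control, two replicates each, without normalisation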
Direction: firefly reporter light: higher = more light from androgen-responsive reporter; Renilla control light: higher = more constitutive control signal (cell number, transfection)
Hit rule: 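Hit when the log firefly-to-Renilla ratio dropped or increased by a fixed fold versus the mean of GFP or LacZ controls across duplicate plates; lowering cut given as 1.5 and as 3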
Meaning of the calls: active = hit: reporter lowered or raised; inactive = no hit
The screen tested about 24,000 reagents; below is an unselected part of those that have a named target and a result. Of all reagents, 246 (1%) were called active. 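Plates not normalised; calls are printed but the firefly/Renilla ratio behind them is not deposited; fold cut for lowering reported inconsistently.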 Raw values are not corrected between plates. Reagents against one gene are numbered here. Reagent sequences are not shown. The record does not give: the amount of reagent.

{"gene":"mRpS18C (mitochondrial ribosomal protein S18C)","reagent no.":1,"firefly reporter light, replicate 1":1.71e5,"firefly reporter light, replicate 2":1.94e5,"Renilla control light, replicate 1":2.17e6,"Renilla control light, replicate 2":3.16e6,"outcome":"inactive"}
{"gene":"mRpS18C (mitochondrial ribosomal protein S18C)","reagent no.":2,"firefly reporter light, replicate 1":9.40e5,"firefly reporter light, replicate 2":6.18e5,"Renilla control light, replicate 1":9.83e5,"Renilla control light, replicate 2":8.55e5,"outcome":"inactive"}
{"gene":"S6kII (Ribosomal protein S6 kinase II)","reagent no.":1,"firefly reporter light, replicate 1":98082,"firefly reporter light, replicate 2":84140,"Renilla control light, replicate 1":8.25e5,"Renilla control light, replicate 2":8.05e5,"outcome":"inactive"}
{"gene":"S6kII (Ribosomal protein S6 kinase II)","reagent no.":2,"outcome":"inactive"}
{"gene":"S6kII (Ribosomal protein S6 kinase II)","reagent no.":3,"outcome":"inactive"}

Copied from the list:
S6kII (Ribosomal protein S6 kinase II) #2, outcome → inactive
Value of S6kII (Ribosomal protein S6 kinase II) #1 under “firefly reporter light, replicate 1”: 98082

The results go on:
{"gene":"c(2)M (crossover suppressor on 2 of Manheim)","reagent no.":1,"firefly reporter light, replicate 1":1.26e6,"firefly reporter light, replicate 2":1.15e6,"Renilla control light, replicate 1":1.97e6,"Renilla control light, replicate 2":1.86e6,"outcome":"inactive"}
{"gene":"Pvr (PDGF- and VEGF-receptor related)","reagent no.":1,"firefly reporter light, replicate 1":5.42e5,"firefly reporter light, replicate 2":6.24e5,"Renilla control light, replicate 1":1.43e6,"Renilla control light, replicate 2":1.28e6,"outcome":"inactive"}
{"gene":"Pvr (PDGF- and VEGF-receptor related)","reagent no.":2,"firefly reporter light, replicate 1":8.89e5,"firefly reporter light, replicate 2":7.29e5,"Renilla control light, replicate 1":1.15e6,"Renilla control light, replicate 2":1.08e6,"outcome":"inactive"}
{"gene":"Pvr (PDGF- and VEGF-receptor related)","reagent no.":3,"outcome":"inactive"}
{"gene":"CG9795","reagent no.":1,"firefly reporter light, replicate 1":35678,"firefly reporter light, replicate 2":23837,"Renilla control light, replicate 1":3.80e5,"Renilla control light, replicate 2":3.38e5,"outcome":"inactive"}
{"gene":"CG9795","reagent no.":2,"firefly reporter light, replicate 1":6.77e5,"firefly reporter light, replicate 2":8.79e5,"Renilla control light, replicate 1":6.84e5,"Renilla control light, replicate 2":9.69e5,"outcome":"inactive"}
{"gene":"CG31546","reagent no.":1,"firefly reporter light, replicate 1":22970,"firefly reporter light, replicate 2":28965,"Renilla control light, replicate 1":2.38e5,"Renilla control light, replicate 2":1.88e5,"outcome":"inactive"}
{"gene":"CG31546","reagent no.":2,"firefly reporter light, replicate 1":3.66e5,"firefly reporter light, replicate 2":3.04e5,"Renilla control light, replicate 1":8.36e5,"Renilla control light, replicate 2":5.61e5,"outcome":"inactive"}
